According to paper PMC12040169 (PLOS Biology, 2025):
This is one part of the list.

Test system: T1, CTL2-GFP (C. trachomatis L2/434/Bu, GFP-expressing)
T1 construct: L2/434/Bu, GFP-expressing
Design: species or system HeLa; Intracellular C. trachomatis growth in HeLa cells, bulk GFP fluorescence relative to DMSO
Details: bulk GFP, single well; 28.5 h, 10 µM; inhibitor

Point of comparison: `CC(C)c1ccc(-c2cncc(NCc3cccc(Cl)c3)n2)cc1` [CBK065347], “% of control remaining” value 151.917%. Against it:
- COc1ccc(C(O)c2coc3ccc(O)c(CN(C)C)c23)cc1 (centres unmarked) [CBK263083] — lower, 112.056%
- COc1ccc(Cn2c(=O)n(C(=O)CCc3cccc(OC)c3)c3ccccc32)cc1 [CBK106557] — lower, 131.92%
- CCC(c1nc2ccccc2c(=O)n1-c1cccnc1)N1C(=O)c2ccccc2C1=O (centres unmarked) [CBK268300] — lower, 145.529%
- CSCCNC(=O)c1coc(COc2ccc3sc(C)nc3c2)n1 [CBK307004] — lower, 116.117%
- CCNS(=O)(=O)c1ccc2c(c1)N(Cc1csnn1)CC2 [CBK306161] — higher, 172.498%
- Cc1cc(S(=O)(=O)NCCC#N)c(C)cc1Cl [CBK043680] — lower, 109.648%
- CCOC(=O)[C@H]1CN(C(=O)C(C)(C)NC(=O)OC(C)(C)C)C[C@@H]1c1cc2cc(C)ccc2o1 [CBK001599] — lower, 94.0871%
- Cc1ccc(S(=O)(=O)N(CC(=O)O)c2ccccc2C)cc1 [CBK262423] — lower, 100%
- Cc1ccc(C2=NN(C(=O)CCC(=O)O)C(c3ccc4nccnc4c3)C2)cc1 (centres unmarked) [CBK287802] — lower, 121.893%
- O=C(NCCN1CCCC1)C1CCCN(c2nc3c(-c4ccccc4)csc3c(=O)[nH]2)C1 (centres unmarked) [CBK215507] — lower, 120.655%
- COc1cc(CO)c(-c2c[nH][nH]c2=O)cc1OC [CBK009476] — lower, 105.545%
- CC(=O)Nc1ccc(N2C(=O)CSC2c2ccccc2[N+](=O)[O-])cc1 (centres unmarked) [CBK294443] — lower, 133.557%
- CCCC/C=C/c1cncc(NC2CCC(O)CC2)n1 (centres unmarked) [CBK037840] — lower, 117.658%
- COc1ccccc1C(=O)N1CCC(c2nc(C)n3ccccc23)C1 (centres unmarked) [CBK282221] — lower, 119.487%
- COc1ccc(N(CC(=O)Nc2cccc3cccnc23)S(=O)(=O)c2ccc(C)cc2)cc1 [CBK263965] — lower, 128.578%
- O=C1CCC(=O)N1CCOc1nccnc1OC1CCN(Cc2ccc(Cl)cc2)CC1 [CBK084338] — lower, 101.74%
- Cc1ccc(Cn2nnc3c(O)nc(C4CCN(C(=O)CC(C)(C)C)CC4)nc32)cc1 [CBK293970] — lower, 111.546%
- O=C(c1cc(F)c(F)cc1F)N1CCC2(CCCN(C/C=C/c3ccccc3)C2)C1 (centres unmarked) [CBK132001] — lower, 105.742%
- O=C(CCSc1ccccc1)Nc1ccccc1C(=O)N1CCCCC1 [CBK269545] — higher, 174.044%
- Cc1ccc(-c2nc(C)sc2CC(=O)N(C)CCN(C)C)cc1 [CBK282175] — lower, 121.663%
- Cc1nc(-c2cc3c(s2)CCN(Cc2ccc(CO)o2)C3)cs1 [CBK306411] — lower, 119.3%
- Cc1nc(C(Cc2ccsc2)NC(=O)c2cc[nH]n2)sc1C (centres unmarked) [CBK284776] — lower, 146.791%
- CCC(CO)Nc1nccnc1-c1cccs1 (centres unmarked) [CBK036800] — higher, 182.847%
- CC(=O)Nc1cccc(-n2c(C)nnc2SCC2CCCCC2)c1 [CBK304590] — lower, 95.9421%
- CCOc1cc(C2Nc3ccccc3NC3=C2C(=O)C(C(=O)OC)C(C)C3)ccc1OC(C)C (centres unmarked) [CBK268456] — lower, 141.948%
- Cc1cc(C)nc(N2CCCC(O)(c3nc(C)c(CCOc4ccccc4)s3)CC2)n1 (centres unmarked) [CBK285924] — lower, 93.2301%
- CC(C)(C)OC(=O)N1CCC(c2nc3ccccc3cc2N)CC1 [CBK285038] — higher, 164.222%
- NC(=S)NC(=O)CN1C(=O)c2ccccc2C1=O [CBK264111] — lower, 122.081%
- COc1ccc(-c2cnc(N)c(NCC(C)C)n2)c(OC)c1OC [CBK063855] — lower, 133.009%
- Cc1cccc(CCNC(=O)C2CN(C(=O)C3CCN(C)CC3)C2)c1 [CBK281967] — higher, 158.313%
- COc1ccccc1CC(C)NC(=O)CCn1ccc2ccncc21 (centres unmarked) [CBK285175] — lower, 125.749%
- COC(C)(C)C(=O)N1CCC2(C/C=C/Cc3ccccc3OCC(=O)NCCNC2=O)CC1 [CBK292001] — lower, 121.702%
- COc1cc2c(cc1OC)CN(CC1CCCCC1)CC2 [CBK138321] — lower, 87.9718%
- COc1cccc(C(NC(=O)C2CCN(Cc3cccs3)CC2)c2cnccn2)c1 (centres unmarked) [CBK148572] — lower, 108.768%
- OC(Cn1nc(-c2ccccc2)cc1-c1ccccc1)Cn1c2ccc(Cl)cc2c2cc(Cl)ccc21 (centres unmarked) [CBK261418] — lower, 92.7913%
- COCCn1cnnc1C(C)NC(=O)c1nc2ccccc2[nH]1 (centres unmarked) [CBK307366] — lower, 113.061%
- C=C(C)CNc1ccccc1C(=O)OC [CBK003656C] — lower, 127.923%
- CC(C)[C@H](NC(=O)C1CC(=O)N(c2ccc(F)cc2)C1)C(=O)N1CCCC1C(=O)O (some centres unmarked) [CBK286723] — lower, 117.35%
- O=C(O)C1CC=CCC1C(=O)N1CCN(C(=O)c2ccco2)CC1 (centres unmarked) [CBK299784] — higher, 159.461%
- Cc1sc2nc(SCc3nc(-c4ccccc4)no3)n(-c3ccccc3)c(=O)c2c1C [CBK266492] — lower, 117.033%
- O=C(O)c1ccc(NC(=O)c2cn(-c3ccccc3)nc2-c2cc3ccccc3o2)cc1 [CBK266587C] — higher, 162.53%
- C[C@@H]1CN[C@@H](C)CN1Cc1cc(NS(=O)(=O)c2ccccc2Cl)cc2ccoc12 [CBK107211T] — lower, 131.118%
- O=S(=O)(c1ccc(Cl)s1)N1CCN(Cc2ccc3c(c2)OCO3)CC1 [CBK270324] — lower, 122.659%
- Cc1nncn1-c1ccc(Cl)cc1C(=O)c1ccccc1Cl [CBK012372] — lower, 97.2881%
- O=C(CC1CC1)NCc1ccc(-c2csnn2)cc1 [CBK149287] — lower, 120.928%
- CCOC(=O)c1nc2c(n1C)[C@H]1[C@H](O)[C@H](O)C[C@H]1C1(CCC1)N2 [CBK303241] — lower, 139.605%
- O=C1COc2ccccc2C/C=C/CC2(CCN(Cc3cncnc3)CC2)CN1 [CBK292130] — lower, 74.7238%
- Cc1nc(-c2cc3c(s2)CCN(CC(O)Cn2cccn2)C3)cs1 (centres unmarked) [CBK304458] — lower, 124.264%
- Cc1cc(C)c2c(n1)nn1c(C)c(CCC(=O)O)c(C)nc21 [CBK265892] — lower, 113.429%
- O=C(NC1CC2(CCCCC2)Oc2ccccc21)C1CCOC1 (centres unmarked) [CBK283760] — lower, 108.715%
- COC(=O)[C@@H]1Cc2ncn(Cc3ccc(Cl)cc3)c2CN1C(=O)c1ccc(OC)cc1 [CBK288983] — lower, 126.39%
- COc1cccc(C(=O)N2CCC[C@@H](N)[C@@H]2c2ccccc2F)c1 [CBK283457] — lower, 110.87%
- CC1(C)CC(=O)C=C(C(=O)NCc2ccc(OC3CCNCC3)cc2)O1 [CBK038948T] — lower, 114.286%
- CC(C)(C)OC(=O)NCCNCc1cc(F)cc(F)c1 [CBK056698] — higher, 159.274%
- COc1cc(OC)cc(-c2c(C)ncnc2OC)c1 [CBK306765] — lower, 123.417%
- CNS(=O)(=O)c1ccc(C(C)NC(=O)N2CCN3CCC2CC3)cc1 (centres unmarked) [CBK304765] — lower, 149.174%
- O=C(CN1CCC(c2ccc(F)cc2)CC1)N1CCCC1 [CBK283502] — lower, 146.801%
- Cn1ncc2c1CCCN(C(=O)COc1ccc(F)cc1F)C2 [CBK285229] — lower, 135.248%
- Cc1ccc2nc(C(=O)NCCSc3nccn3C)cn2c1 [CBK281397] — lower, 121.054%
- CCn1c(SCC(=O)N2CCN(c3ccccc3)CC2)nnc1-c1ccc(N)cc1 [CBK265786] — lower, 95.5367%
- Cc1ccncc1C(=O)Nc1c(C)noc1C [CBK200393] — lower, 102.312%
- FC(F)(F)c1ccnc(OCCOc2ccc(Cl)cc2)n1 [CBK115838] — higher, 163.956%
- O=C(CCc1ccccc1)N1CCC(c2cccc(Cc3cccc(F)c3)n2)CC1 [CBK286219] — lower, 120.537%
- CCn1cc(S(=O)(=O)NCc2ccccc2OC)cn1 [CBK270304] — lower, 113.903%
- Cc1cc(C)nc(SCCN2CCOCC2)n1 [CBK261769C] — lower, 113.726%
- O=C(CSc1nccc2ccccc12)NC1CCCOC1 (centres unmarked) [CBK282677] — lower, 125.911%
- Cc1nn(C)c(Cl)c1S(=O)(=O)Nc1ccc2cc(Br)cnc2n1 [CBK073892] — lower, 114.423%
- CC1CCc2c(sc3ncnc(NCCc4nc5ccccc5[nH]4)c23)C1 (centres unmarked) [CBK268809] — lower, 111.038%
- S=C(NCCC(c1ccccc1)c1ccccc1)NC1CCCCC1 [CBK264007] — lower, 102.671%
- O=C(NCCN1CCCCC1)C1CC(=O)N(Cc2ccccc2)C1 (centres unmarked) [CBK305150] — higher, 161.478%
- Cc1cc(C[C@@H]2COC[C@H]2NCc2ccc(C(C)C)cc2)on1 [CBK284884] — lower, 120.594%
- Cc1cc(C)n(CC(=O)NCC2CCCO2)c(=O)c1C#N (centres unmarked) [CBK269926] — lower, 147.659%
- Nc1cccc(-c2cc(Nc3ccc(CCO)cc3)ncn2)c1 [CBK090766] — lower, 125.758%
- COc1ncccc1C(=O)N1CCc2ccccc2C1 [CBK200336] — lower, 107.545%
- Cc1cc(F)ccc1NC(=O)c1n[nH]cc1Cl [CBK288020] — lower, 102.792%
- Cc1cccc(Nc2ncnc3ccccc23)c1 [CBK072827] — lower, 117.583%
- Cn1c(=S)[nH]c2c(-c3ccccc3)c[nH]c2c1=O [CBK288488] — lower, 88.655%
- COC(=O)CCn1c(=O)c2c(nc3oc(C(C)(C)C)cn32)n(C)c1=O [CBK306034] — lower, 130.728%
- COc1cc2cc3c(N)c(C(=O)NCc4cccs4)sc3nc2cc1OC [CBK120215] — lower, 100%
